# Measurements as given in the supplement of paper PMC8728848.
# The list shows a part of the results.
# B1: SP15308F-bth-333-19-333 (Bacteroides thetaiotaomicron) (protein)
# chain: SCNNEWESEQYVQMVSFKAPVNAQGVTPIYIRYKPEGKVTYQLPLIVSGSTMNSKDLNVHVGLDLDTLDVLNVEHFGSRKELFFKPLENKYYEFPETVQIPAGECTSLLPIDFALKDLDQVDKWVLPLAIQSNDPSHNYQANPRKFYRRAMLRISPFNDYSGQYSATAYKVYFKGNEKEAIVPEYHTSYVIDDKTIFFYAGLIDIDRLDRKYYKIKFEFTEEKIDLQTRKLKISSDNEDINLVVKGQPSYTVEEEMDATRPYLKHIYVTINNLEYEFTDYTSVPGYPLEYVVKGSLTMERKINTQIPDEDQAIEW
# Legend:
# Test in all cases: glycan array binding signal (z-score within array); higher = stronger binding
# Details in all cases: glycan notation: IUPAC condensed, linker removed
# Gal(a1-3)Gal(b1-3)GlcNAc = target: Gal(a1-3)Gal(b1-3)GlcNAc
# Procedure, shortened: (§1)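 The binding signal is a Z-score computed within each array. Data were drawn from 3228 arrays in the Consortium for Functional Glycomics database, restricted to those with a known protein sequence. Scores were averaged over arrays of the same protein sequence at different concentrations or buffers, and over linkers, and negative values can be taken as non-binding.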
# [1] = target: Gal(a1-3)Gal(b1-3)GlcNAc(b1-2)Man
# Procedure, shortened: as §1
# [2] = target: Gal(a1-3)Gal(b1-3)GlcNAc(b1-2)Man(a1-3)[Gal(a1-3)Gal(b1-3)GlcNAc(b1-2)Man(a1-6)]Man(b1-4)GlcNAc(b1-4)GlcNAc
# Procedure, shortened: as §1
# [3] = target: Gal(a1-3)Gal(b1-3)GlcNAc(b1-3)GalNAc
# Procedure, shortened: as §1
# [4] = target: Gal(a1-3)Gal(b1-3)GlcNAc(b1-6)GalNAc
# Procedure, shortened: as §1
# [5] = target: Gal(a1-3)Gal(b1-3)[Fuc(a1-4)]GlcNAc(b1-2)Man(a1-3)[Gal(a1-3)Gal(b1-3)[Fuc(a1-4)]GlcNAc(b1-2)Man(a1-6)]Man(b1-4)GlcNAc(b1-4)GlcNAc
# Procedure, shortened: as §1
# Gal(a1-3)Gal(b1-4)Glc = target: Gal(a1-3)Gal(b1-4)Glc
# Procedure, shortened: as §1
# Gal(a1-3)Gal(b1-4)GlcNAc = target: Gal(a1-3)Gal(b1-4)GlcNAc
# Procedure, shortened: as §1
# [6] = target: Gal(a1-3)Gal(b1-4)GlcNAc(b1-2)Man
# Procedure, shortened: as §1
# [7] = target: Gal(a1-3)Gal(b1-4)GlcNAc(b1-2)Man(a1-3)[Gal(a1-3)Gal(b1-4)GlcNAc(b1-2)Man(a1-6)]Man(b1-4)GlcNAc(b1-4)GlcNAc
# Procedure, shortened: as §1
# [8] = target: Gal(a1-3)Gal(b1-4)GlcNAc(b1-3)GalNAc
# Procedure, shortened: as §1
# [9] = target: Gal(a1-3)Gal(b1-4)GlcNAc(b1-6)GalNAc
# Procedure, shortened: as §1
# [10] = target: Gal(a1-3)Gal(b1-4)[Fuc(a1-3)]GlcNAc
# Procedure, shortened: as §1
# [11] = target: Gal(a1-3)Gal(b1-4)[Fuc(a1-3)]GlcNAc(b1-2)Man(a1-3)[Gal(a1-3)Gal(b1-4)[Fuc(a1-3)]GlcNAc(b1-2)Man(a1-6)]Man(b1-4)GlcNAc(b1-4)GlcNAc
# Procedure, shortened: as §1
# Gal(a1-3)GalNAc = target: Gal(a1-3)GalNAc
# Procedure, shortened: as §1
# [12] = target: Gal(a1-3)[Gal(a1-4)]Gal(b1-4)GlcNAc
# Procedure, shortened: as §1
# [13] = target: Gal(a1-4)Gal(b1-3)GlcNAc(b1-2)Man(a1-3)[Gal(a1-4)Gal(b1-3)GlcNAc(b1-2)Man(a1-6)]Man(b1-4)GlcNAc(b1-4)GlcNAc
# Procedure, shortened: as §1
# Gal(a1-4)Gal(b1-4)Glc = target: Gal(a1-4)Gal(b1-4)Glc
# Procedure, shortened: as §1
# Gal(a1-4)Gal(b1-4)GlcNAc = target: Gal(a1-4)Gal(b1-4)GlcNAc
# Procedure, shortened: as §1
# [14] = target: Gal(a1-4)Gal(b1-4)GlcNAc(b1-2)Man(a1-3)[Gal(a1-4)Gal(b1-4)GlcNAc(b1-2)Man(a1-6)]Man(b1-4)GlcNAc(b1-4)GlcNAc
# Procedure, shortened: as §1
# [15] = target: Gal(a1-4)Gal(b1-4)GlcNAc(b1-3)Gal(b1-4)Glc
# Procedure, shortened: as §1
# Gal(a1-4)GlcNAc = target: Gal(a1-4)GlcNAc
# Procedure, shortened: as §1
# Gal(a1-6)Glc = target: Gal(a1-6)Glc
# Procedure, shortened: as §1
# Gal(b1-2)Gal = target: Gal(b1-2)Gal
# Procedure, shortened: as §1
# Gal(b1-3)Gal = target: Gal(b1-3)Gal
# Procedure, shortened: as §1
# Gal(b1-3)Gal(b1-4)GlcNAc = target: Gal(b1-3)Gal(b1-4)GlcNAc
# Procedure, shortened: as §1
# Gal(b1-3)GalNAc = target: Gal(b1-3)GalNAc
# Procedure, shortened: as §1
# [16] = target: Gal(b1-3)GalNAc(a1-3)[Fuc(a1-2)]Gal(b1-4)Glc
# Procedure, shortened: as §1
# [17] = target: Gal(b1-3)GalNAc(a1-3)[Fuc(a1-2)]Gal(b1-4)GlcNAc
# Procedure, shortened: as §1
# Gal(b1-3)GalNAc(b1-3)Gal = target: Gal(b1-3)GalNAc(b1-3)Gal
# Procedure, shortened: as §1
# [18] = target: Gal(b1-3)GalNAc(b1-3)Gal(a1-4)Gal(b1-4)Glc
# Procedure, shortened: as §1
# [19] = target: Gal(b1-3)GalNAc(b1-4)Gal(b1-4)Glc
# Procedure, shortened: as §1
# [20] = target: Gal(b1-3)GalNAc(b1-4)[Neu5Ac(a2-3)]Gal(b1-4)Glc
# Procedure, shortened: as §1
# Gal(b1-3)GlcNAc = target: Gal(b1-3)GlcNAc
# Procedure, shortened: as §1
# [21] = target: Gal(b1-3)GlcNAc(a1-3)Gal(b1-4)GlcNAc
# Procedure, shortened: as §1
# [22] = target: Gal(b1-3)GlcNAc(a1-6)Gal(b1-4)GlcNAc
# Procedure, shortened: as §1
# Gal(b1-3)GlcNAc(b1-2)Man = target: Gal(b1-3)GlcNAc(b1-2)Man
# Procedure, shortened: as §1
# [23] = target: Gal(b1-3)GlcNAc(b1-2)Man(a1-3)[Gal(b1-3)GlcNAc(b1-2)Man(a1-6)]Man(b1-4)GlcNAc(b1-4)GlcNAc
# Procedure, shortened: as §1
binder,measurement,setting,value
B1,glycan array binding signal (z-score),Gal(a1-3)Gal(b1-3)GlcNAc,0.565
same,glycan array binding signal (z-score),[1],0.13
same,glycan array binding signal (z-score),[2],-0.038
same,glycan array binding signal (z-score),[3],-1.31
same,glycan array binding signal (z-score),[4],-1.04
same,glycan array binding signal (z-score),[5],-0.629
same,glycan array binding signal (z-score),Gal(a1-3)Gal(b1-4)Glc,-0.925
same,glycan array binding signal (z-score),Gal(a1-3)Gal(b1-4)GlcNAc,-1.39
same,glycan array binding signal (z-score),[6],-0.999
same,glycan array binding signal (z-score),[7],-0.462
same,glycan array binding signal (z-score),[8],-0.383
same,glycan array binding signal (z-score),[9],-0.976
same,glycan array binding signal (z-score),[10],-1.59
same,glycan array binding signal (z-score),[11],-0.37
same,glycan array binding signal (z-score),Gal(a1-3)GalNAc,0.714
same,glycan array binding signal (z-score),[12],1.57
same,glycan array binding signal (z-score),[13],-1.15
same,glycan array binding signal (z-score),Gal(a1-4)Gal(b1-4)Glc,-0.452
same,glycan array binding signal (z-score),Gal(a1-4)Gal(b1-4)GlcNAc,1.28
same,glycan array binding signal (z-score),[14],1.48
same,glycan array binding signal (z-score),[15],0.018
same,glycan array binding signal (z-score),Gal(a1-4)GlcNAc,-1.09
same,glycan array binding signal (z-score),Gal(a1-6)Glc,-1
same,glycan array binding signal (z-score),Gal(b1-2)Gal,0.151
same,glycan array binding signal (z-score),Gal(b1-3)Gal,-0.89
same,glycan array binding signal (z-score),Gal(b1-3)Gal(b1-4)GlcNAc,-0.489
same,glycan array binding signal (z-score),Gal(b1-3)GalNAc,-0.555
same,glycan array binding signal (z-score),[16],0.719
same,glycan array binding signal (z-score),[17],-0.913
same,glycan array binding signal (z-score),Gal(b1-3)GalNAc(b1-3)Gal,1.6
same,glycan array binding signal (z-score),[18],-0.601
same,glycan array binding signal (z-score),[19],0.87
same,glycan array binding signal (z-score),[20],-0.243
same,glycan array binding signal (z-score),Gal(b1-3)GlcNAc,0.065
same,glycan array binding signal (z-score),[21],-0.961
same,glycan array binding signal (z-score),[22],-0.171
same,glycan array binding signal (z-score),Gal(b1-3)GlcNAc(b1-2)Man,1.87
same,glycan array binding signal (z-score),[23],-0.275

# A second format for some results above:
binder	measurement	setting	value
B1	glycan array binding signal (z-score)	[12]	1.57
same	glycan array binding signal (z-score)	[13]	-1.15
